Measurements: PubChem BioAssay AID2685 (National Center for Advancing Translational Sciences (NCATS), 2010)
Some of the results follow. These are further read-outs of the screen, such as a control signal, another cell line or another target. No call is given for them. The list favours compounds with an active or inconclusive main result. Words in brackets tell the shape of the fitted curve; partial curves, single points and poor fits give uncertain potencies.

Experiment: qHTS Assay for Lipid Storage Modulators in Drosophila S3 Cells;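 for cell number change: cells counted by Cell Tracker Red CMTPX staining in the red channel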
Details: BODIPY lipid droplet fluorescence, 18-24 h; for cell number change: measured here: cell count max response, cells fed with added oleic acid
Outline: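 Drosophila S3 cells got compounds at several concentrations plus oleic acid (400 uM solution). Laser-scanning cytometry with 488 nm excitation read lipid droplets at 500-530 nm and cells at 575-640 nm. Percent activity was relative to 20 uM Triacsin C.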

[1] = measured here: lipid fluorescence (Fed channel) AC50, cells fed with added oleic acid
[2] = measured here: cell number channel AC50, cells fed with added oleic acid

| SMILES | cell number change | AC50 [1] | AC50 [2] |
| --- | --- | --- | --- |
| COc1cc(/C=C/C(=O)N2CCCC2)cc(OC)c1OC | -0.207% | 5.17 µM [rising, single point] |  |
| Cc1ccccc1C1C(C#N)=C2N=C(N)c3c(sc4c3CCCCC4)N2C2=C1C(=O)CC(C)(C)C2 (centres undefined) | -36.9% | 13 µM [falling, partial curve] | 2.31 µM [falling, full curve] |
| CC1=NN(c2ccc(C)cc2)C(=O)/C1=C\C=C\c1ccccc1 | -41.3% | 29.1 µM [falling, single point] | 20.6 µM [falling, single point] |
| O=C1c2ccccc2C(O)(c2ncc[nH]2)N1C1CCCCC1 (centres undefined) | -9.61% | 2.59 µM [falling, full curve, poor fit] |  |
| CCCCOCC(O)CN1CCN(C(C)=O)CC1 (centres undefined) | -15.4% | 0.0326 µM [falling, full curve, poor fit] |  |
| O=C(COc1ccccc1[N+](=O)[O-])N/N=C/c1cccc(OC(=O)c2ccc3c(c2)OCO3)c1 | -25.2% | 14.6 µM [falling, partial curve, poor fit] |  |
| O=C(NCc1ccc2c(c1)OCO2)C1CCC(=O)N1C1CCCCC1 (centres undefined) | 0.129% | 0.116 µM [rising, partial curve, poor fit] |  |
| COc1ccccc1CN1CCSCC1 |  | 18.4 µM [falling, partial curve] |  |
| COc1ccc(/C=N/NC(=O)c2sc3nc(C)cc(C)c3c2N)cc1 | 25.2% | 3.26 µM [rising, full curve] |  |
| CC1=C(C(=O)Nc2cc(C(=O)N3CCN(c4cccc(C)c4)C(C)C3)ccc2C)SCCO1 (centres undefined) | 7.03% |  |  |
| C=CCN(c1ccccc1)S(=O)(=O)c1cccc(C(=O)NC2CCN(Cc3ccccc3)CC2)c1 | 8.12% | 7.31 µM [rising, partial curve, poor fit] |  |
| Cc1noc(C)c1COc1ccc(C(=O)OCC(=O)NC2CCCCC2C)cc1 (centres undefined) |  | 2.31 µM [falling, partial curve] |  |
| CCC1C(=O)Nc2nc(-c3ccccc3)c(-c3ccccc3)n2N=C1C (centres undefined) | 27.1% | 6.51 µM [rising, single point] |  |
| CN1CCN(c2ccc(S(=O)(=O)N3CCCCC3)cc2[N+](=O)[O-])CC1 | -12.4% |  | 0.082 µM [falling, full curve, poor fit] |
| CCOc1ccc(N2C(=O)C3CCCN3C2=S)cc1 (centres undefined) | -9.68% | 0.0259 µM [rising, full curve, poor fit] |  |
| Cc1ccc(OCCN2CCNCC2)c([N+](=O)[O-])c1 | 60.7% | 2.31 µM [rising, partial curve] | 25.9 µM [rising, single point] |
| O=P(O)(CCCP(=O)(O)CCc1ccccc1)CCc1ccccc1 | -31.3% | 5.17 µM [falling, full curve] |  |
| CCOC(=O)[C@H]1[C@H]2COc3ccc(Br)cc3[C@@H]2N2C(=O)c3cc(Br)ccc3NC(=O)[C@@]12C | 5.41% | 0.13 µM [falling, full curve, poor fit] | 0.146 µM [falling, full curve] |
| Cc1cccc(OCC(=O)NNc2c3ccccc3nc3ccccc23)c1 | -59.8% | 7.31 µM [falling, partial curve] | 20.6 µM [falling, single point] |
| CCOC(=O)CC(NC(C)=O)c1ccc([N+](=O)[O-])cc1 (centres undefined) | -46.5% | 29.1 µM [falling, single point] | 29.1 µM [falling, single point] |

| SMILES | cell number change | AC50 [1] | AC50 [2] |
| --- | --- | --- | --- |
| C=CCN(c1ccc(C(=O)Nc2cc(C)cc(C)c2)cc1)S(C)(=O)=O |  | 2.91 µM [rising, single point] |  |
| CCOC(=O)n1c(=O)n(Cc2ccccc2)c2ccccc21 |  | 23.1 µM [rising, single point] |  |
| CC1(C)CC(=O)C(CS(=O)(=O)c2ccccc2)=C(O)C1 | 8.31% | 20.6 µM [falling, single point] |  |
| CC1CCCCC1NC(=O)CSc1nnc(-c2ccco2)n1C (centres undefined) | 16.6% | 0.00461 µM [rising, full curve, poor fit] |  |
| COc1ccc(Cl)cc1Nc1nc(-c2sc(NC(=O)C(C)(C)C)nc2C)cs1 | -28% | 6.51 µM [falling, full curve] |  |
| CCOC(=O)c1c(NC(=O)CSc2nnnn2-c2ccccc2OCC)sc2c1CC(C)(C)NC2(C)C |  |  | 3.26 µM [rising, single point] |
| Cc1ccccc1N1CCN(C(=S)c2ccc(-c3ccc([N+](=O)[O-])cc3)o2)CC1 | -59% |  | 8.2 µM [falling, partial curve, poor fit] |
| CC(=O)c1ccc(OCc2ccccc2)c(C)c1O | 23.7% | 18.4 µM [rising, single point] |  |
| O=C(Nc1ccccc1C(=O)O)c1cc(S(=O)(=O)N2CCOCC2)c(Br)s1 |  | 0.651 µM [rising, full curve] |  |
| Cc1cccc(NC(=O)c2oc3ccc(S(=O)(=O)N4CCOCC4)cc3c2C)c1C | -22.2% |  | 0.411 µM [falling, partial curve, poor fit] |
| O=C1C=C(/C=C/c2ccccc2)C[C@@H](c2ccc(F)cc2)C1 | -7.82% |  |  |
| Cc1cccc(Nc2ccc(C(=O)O)cc2[N+](=O)[O-])c1C | 28.2% | 6.51 µM [rising, single point] |  |
| O=C(COc1ccc2oc(-c3ccccc3)cc(=O)c2c1)Nc1ccccc1 | -22.2% | 23.1 µM [falling, single point] | 2.59 µM [falling, single point] |
| CCn1cc(/C=C(\NC(=O)c2ccc(OC)c(OC)c2)C(=O)NCCCO)c2ccccc21 | 5.36% | 4.11 µM [rising, single point] |  |
| CCOC(=O)C1(CCOc2ccccc2)CCN(Cc2cccc(OC)c2O)CC1 | -3.75% | 20.6 µM [falling, single point] |  |
| CC1CC(Nc2ccccc2N)=CC(=O)O1 (centres undefined) | -3.9% | 6.51 µM [falling, single point] | 0.13 µM [falling, full curve, poor fit] |
| O=C(CN1CCOCC1)NNC(=S)Nc1ccc(Cl)cc1 | 2.49% | 0.00411 µM [falling, full curve, poor fit] |  |
| COCCN(C(=O)CSc1nnc(-c2ccccc2OC)o1)c1c(N)n(CC(C)C)c(=O)[nH]c1=O | -41.3% | 1.64 µM [falling, partial curve] | 29.1 µM [falling, single point] |
| O=C(C1=C[C@@H](c2ccc(Br)cc2)C[C@@H](OCCCCO)O1)N1CCN(Cc2ccccc2)CC1 | 3.18% | 14.6 µM [falling, single point] |  |
| CC1CCCC(C)N1C(=O)C1CCCCC1 (centres undefined) | -24.2% | 0.103 µM [falling, full curve] |  |

| SMILES | cell number change | AC50 [1] | AC50 [2] |
| --- | --- | --- | --- |
| Cc1ccccc1S(=O)(=O)Oc1cccc2c(O)cccc12 | -10.7% | 6.51 µM [falling, single point] |  |
| COC(=O)Cc1ccc(NC(=S)NCc2ccc(OC)cc2)cc1 | -38.7% |  |  |
| CCOC(=O)c1cccc(NC(=O)CSc2nnc(C)n2CC2CCCO2)c1 (centres undefined) | -14.1% |  |  |
| CC(C)(C)c1ccc(SCCc2ccncc2)cc1 | -43.2% | 23.1 µM [falling, single point] | 18.4 µM [falling, single point] |
| COc1ccc(C(=O)CCN2CCN(c3ccccc3F)CC2)cc1 | -25.5% | 14.1 µM [falling, single point] |  |
| CCCC(C(=O)NC1CCCC1)N(C(=O)Cn1nnc(-c2ccc(C)o2)n1)c1ccccc1F (centres undefined) | -4.84% |  |  |
| CC1(C)Cc2c(C#N)c(NCCN3CCOCC3)nc(-c3ccccc3)c2CO1 | 8.89% | 29.1 µM [rising, single point] |  |
| CCOC(=O)C1=C(O)/C(=C/c2cccc(OC)c2O)N=C1C | -16.9% | 0.517 µM [falling, partial curve, poor fit] | 6.51 µM [falling, single point] |
| COc1cc(OC)cc(C(=O)OCC(=O)c2ccc(S(=O)(=O)N3CCCCC3)cc2)c1 | -15.2% |  |  |
| CCCCN(CC)S(=O)(=O)c1ccccc1 | 1.16% |  |  |
| CCCCCCCCn1c(N2CCN(c3cccc(Cl)c3)CC2)nc2c1c(=O)[nH]c(=O)n2C |  | 2.06 µM [rising, partial curve] |  |
| CCOC(=O)/C(C#N)=C/c1cn(CCC(=O)O)nc1-c1ccc(F)cc1 | 51.8% |  | 18.4 µM [rising, single point] |
| CCC(=O)N1CCC2(CC1)Oc1ccc(F)cc1C(=O)C21CC(c2ccc(Cl)cc2)=NO1 (centres undefined) | 14.7% | 9.2 µM [rising, partial curve] |  |
| CN1CCN(c2cnn(-c3ccccc3)c(=O)c2Br)CC1 | -32.7% |  | 0.092 µM [falling, full curve] |
| COc1cc(-n2c(=O)c3ccccc3n(Cc3cc(=O)n4ccccc4n3)c2=O)cc(OC)c1OC | -28.6% | 1.16 µM [falling, single point] | 0.651 µM [falling, single point] |
| O=C(CN(C(=O)CCC(=O)Nc1ccccn1)c1ccc(F)cc1)NCc1ccc(F)cc1 | 5.13% | 0.116 µM [falling, single point] |  |
| O=C(COc1ccc(Cl)cc1Br)Nc1ccncc1 | 2.81% | 18.4 µM [falling, single point] |  |
| Cc1cccc(/C(N)=N/OC(=O)COc2ccc(Cl)cc2)c1 | 7.1% |  | 6.51 µM [rising, single point] |

Part of the list above in another layout:
SMILES	cell number change	AC50 [1]	AC50 [2]
CCC(=O)N1CCC2(CC1)Oc1ccc(F)cc1C(=O)C21CC(c2ccc(Cl)cc2)=NO1 (centres undefined)	14.7%	9.2 µM [rising, partial curve]	
CN1CCN(c2cnn(-c3ccccc3)c(=O)c2Br)CC1	-32.7%		0.092 µM [falling, full curve]
COc1cc(-n2c(=O)c3ccccc3n(Cc3cc(=O)n4ccccc4n3)c2=O)cc(OC)c1OC	-28.6%	1.16 µM [falling, single point]	0.651 µM [falling, single point]
O=C(CN(C(=O)CCC(=O)Nc1ccccn1)c1ccc(F)cc1)NCc1ccc(F)cc1	5.13%	0.116 µM [falling, single point]	
